# From the supplement of paper PMC6411743
# Sequences of proteins named here, by UniProt entry; tags and fusion partners are left off. A change or cut given only in a name is not applied to a line headed by its entry.
# UniProt P53621: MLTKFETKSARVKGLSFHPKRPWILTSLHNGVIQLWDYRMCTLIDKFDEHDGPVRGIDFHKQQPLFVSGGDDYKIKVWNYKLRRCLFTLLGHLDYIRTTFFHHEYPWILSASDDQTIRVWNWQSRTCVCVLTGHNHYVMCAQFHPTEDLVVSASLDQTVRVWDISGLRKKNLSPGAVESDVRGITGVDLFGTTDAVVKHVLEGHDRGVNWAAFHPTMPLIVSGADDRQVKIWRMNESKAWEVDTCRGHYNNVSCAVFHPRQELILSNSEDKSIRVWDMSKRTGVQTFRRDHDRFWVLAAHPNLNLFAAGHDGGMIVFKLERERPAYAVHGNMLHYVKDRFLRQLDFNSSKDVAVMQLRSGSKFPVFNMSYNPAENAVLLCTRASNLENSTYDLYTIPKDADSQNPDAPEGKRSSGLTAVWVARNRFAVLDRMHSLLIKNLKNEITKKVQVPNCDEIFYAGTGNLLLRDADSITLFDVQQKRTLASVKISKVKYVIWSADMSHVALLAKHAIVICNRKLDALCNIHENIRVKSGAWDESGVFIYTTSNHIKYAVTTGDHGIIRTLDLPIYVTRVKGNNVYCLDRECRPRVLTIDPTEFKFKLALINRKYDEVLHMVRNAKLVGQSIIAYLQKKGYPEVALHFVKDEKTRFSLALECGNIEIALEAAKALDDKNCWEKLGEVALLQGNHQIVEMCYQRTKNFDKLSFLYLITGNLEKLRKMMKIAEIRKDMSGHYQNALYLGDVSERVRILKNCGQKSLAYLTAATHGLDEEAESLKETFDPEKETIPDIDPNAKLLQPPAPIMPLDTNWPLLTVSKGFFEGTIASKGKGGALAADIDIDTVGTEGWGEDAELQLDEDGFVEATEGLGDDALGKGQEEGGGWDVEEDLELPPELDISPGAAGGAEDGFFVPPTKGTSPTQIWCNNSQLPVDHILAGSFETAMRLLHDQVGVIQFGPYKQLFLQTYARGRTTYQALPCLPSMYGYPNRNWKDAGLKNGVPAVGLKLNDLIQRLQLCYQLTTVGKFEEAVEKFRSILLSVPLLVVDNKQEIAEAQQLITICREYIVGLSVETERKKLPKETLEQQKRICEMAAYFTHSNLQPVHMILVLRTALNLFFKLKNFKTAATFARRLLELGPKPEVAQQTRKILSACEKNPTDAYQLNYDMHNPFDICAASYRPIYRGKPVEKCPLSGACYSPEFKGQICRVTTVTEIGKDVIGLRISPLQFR
# UniProt P51149, whole entry: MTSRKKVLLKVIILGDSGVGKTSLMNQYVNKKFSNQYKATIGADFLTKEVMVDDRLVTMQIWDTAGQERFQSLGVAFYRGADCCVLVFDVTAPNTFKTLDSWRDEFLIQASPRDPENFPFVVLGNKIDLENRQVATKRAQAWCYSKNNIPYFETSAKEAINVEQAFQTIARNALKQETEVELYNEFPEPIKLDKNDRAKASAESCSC
# UniProt P50219: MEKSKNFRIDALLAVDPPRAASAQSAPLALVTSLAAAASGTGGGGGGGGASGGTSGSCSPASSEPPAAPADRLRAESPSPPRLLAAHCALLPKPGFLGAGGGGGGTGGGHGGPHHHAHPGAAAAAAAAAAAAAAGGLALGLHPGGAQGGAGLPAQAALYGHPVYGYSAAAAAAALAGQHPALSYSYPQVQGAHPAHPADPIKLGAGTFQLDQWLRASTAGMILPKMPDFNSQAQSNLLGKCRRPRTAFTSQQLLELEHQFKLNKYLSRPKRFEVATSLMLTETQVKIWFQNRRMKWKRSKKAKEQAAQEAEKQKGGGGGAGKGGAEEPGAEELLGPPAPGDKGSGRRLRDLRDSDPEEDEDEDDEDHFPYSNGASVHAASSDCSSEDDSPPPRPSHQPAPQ
# UniProt P50238: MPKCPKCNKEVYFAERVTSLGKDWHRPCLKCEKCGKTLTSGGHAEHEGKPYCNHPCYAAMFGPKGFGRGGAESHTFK
# UniProt P53609, whole entry, looked up: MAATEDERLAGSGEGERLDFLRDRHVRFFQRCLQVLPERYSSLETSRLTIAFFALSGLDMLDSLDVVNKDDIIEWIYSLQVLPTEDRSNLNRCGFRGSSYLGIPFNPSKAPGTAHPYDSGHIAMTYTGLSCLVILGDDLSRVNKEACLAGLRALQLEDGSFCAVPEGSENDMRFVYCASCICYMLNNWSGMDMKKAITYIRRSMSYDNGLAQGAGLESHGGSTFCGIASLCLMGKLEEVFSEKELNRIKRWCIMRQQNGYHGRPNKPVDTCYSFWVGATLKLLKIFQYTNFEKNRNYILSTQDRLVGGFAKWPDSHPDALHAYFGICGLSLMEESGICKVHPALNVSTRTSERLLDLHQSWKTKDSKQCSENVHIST
# UniProt P47813, whole entry: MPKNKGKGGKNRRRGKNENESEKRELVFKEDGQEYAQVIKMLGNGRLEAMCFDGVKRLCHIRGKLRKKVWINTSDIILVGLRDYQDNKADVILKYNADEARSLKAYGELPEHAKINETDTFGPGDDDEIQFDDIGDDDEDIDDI
# UniProt P50148, whole entry: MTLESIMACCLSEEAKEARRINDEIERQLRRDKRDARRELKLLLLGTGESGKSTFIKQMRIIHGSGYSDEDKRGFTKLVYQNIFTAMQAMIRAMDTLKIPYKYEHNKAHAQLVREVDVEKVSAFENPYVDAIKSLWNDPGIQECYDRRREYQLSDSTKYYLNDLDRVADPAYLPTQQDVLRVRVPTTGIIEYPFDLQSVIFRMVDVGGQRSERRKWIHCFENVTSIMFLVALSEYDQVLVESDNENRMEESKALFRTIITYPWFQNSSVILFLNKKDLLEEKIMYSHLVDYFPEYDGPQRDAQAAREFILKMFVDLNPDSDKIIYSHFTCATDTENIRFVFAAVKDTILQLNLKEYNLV
# UniProt P52758: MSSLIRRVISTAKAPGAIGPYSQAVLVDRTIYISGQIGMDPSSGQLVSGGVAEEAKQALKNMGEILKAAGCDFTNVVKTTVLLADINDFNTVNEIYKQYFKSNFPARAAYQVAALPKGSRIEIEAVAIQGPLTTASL
# UniProt P49458: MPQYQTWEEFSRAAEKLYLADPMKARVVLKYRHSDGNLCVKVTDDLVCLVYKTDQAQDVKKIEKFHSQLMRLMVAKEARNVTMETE
# UniProt P42336, whole entry: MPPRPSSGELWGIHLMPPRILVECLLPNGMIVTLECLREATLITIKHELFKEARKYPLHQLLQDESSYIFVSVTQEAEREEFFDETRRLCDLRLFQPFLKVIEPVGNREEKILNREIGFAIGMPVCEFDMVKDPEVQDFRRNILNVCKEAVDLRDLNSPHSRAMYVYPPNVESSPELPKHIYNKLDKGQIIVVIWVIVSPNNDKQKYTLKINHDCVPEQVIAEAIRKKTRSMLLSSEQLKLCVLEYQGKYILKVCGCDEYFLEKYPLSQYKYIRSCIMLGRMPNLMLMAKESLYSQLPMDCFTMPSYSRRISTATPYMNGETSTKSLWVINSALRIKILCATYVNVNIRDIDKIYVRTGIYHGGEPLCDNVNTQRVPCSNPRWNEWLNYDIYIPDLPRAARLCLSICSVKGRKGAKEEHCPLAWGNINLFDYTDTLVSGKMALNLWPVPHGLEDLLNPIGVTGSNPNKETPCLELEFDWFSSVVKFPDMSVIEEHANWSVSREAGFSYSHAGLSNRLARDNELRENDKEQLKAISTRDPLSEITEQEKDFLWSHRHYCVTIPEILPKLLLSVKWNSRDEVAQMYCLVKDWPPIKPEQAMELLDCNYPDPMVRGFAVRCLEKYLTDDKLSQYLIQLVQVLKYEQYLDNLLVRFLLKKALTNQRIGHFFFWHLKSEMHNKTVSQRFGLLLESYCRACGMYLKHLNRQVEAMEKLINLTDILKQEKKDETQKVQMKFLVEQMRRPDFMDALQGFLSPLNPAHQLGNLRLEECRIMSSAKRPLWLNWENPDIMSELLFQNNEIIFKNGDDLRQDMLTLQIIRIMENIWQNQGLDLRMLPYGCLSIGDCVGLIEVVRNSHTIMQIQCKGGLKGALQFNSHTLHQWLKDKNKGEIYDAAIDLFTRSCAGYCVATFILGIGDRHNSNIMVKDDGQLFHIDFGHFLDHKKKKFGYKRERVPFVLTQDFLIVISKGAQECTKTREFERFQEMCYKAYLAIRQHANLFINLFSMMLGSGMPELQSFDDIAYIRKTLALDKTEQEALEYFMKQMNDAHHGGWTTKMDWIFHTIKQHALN
# UniProt P49257: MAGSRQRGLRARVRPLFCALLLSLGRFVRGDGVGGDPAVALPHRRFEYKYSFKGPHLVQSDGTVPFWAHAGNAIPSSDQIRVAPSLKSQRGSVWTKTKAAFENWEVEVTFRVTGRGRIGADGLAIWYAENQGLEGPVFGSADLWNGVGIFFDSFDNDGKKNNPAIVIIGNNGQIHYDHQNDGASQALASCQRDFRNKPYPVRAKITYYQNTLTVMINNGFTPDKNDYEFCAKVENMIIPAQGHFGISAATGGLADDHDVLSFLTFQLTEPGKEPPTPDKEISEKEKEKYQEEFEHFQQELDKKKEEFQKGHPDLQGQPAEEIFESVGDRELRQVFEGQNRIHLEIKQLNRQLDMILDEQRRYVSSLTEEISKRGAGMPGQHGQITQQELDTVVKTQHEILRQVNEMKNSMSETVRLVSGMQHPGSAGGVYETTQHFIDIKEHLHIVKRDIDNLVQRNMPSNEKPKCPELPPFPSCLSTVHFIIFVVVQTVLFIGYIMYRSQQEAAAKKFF
# UniProt P49336: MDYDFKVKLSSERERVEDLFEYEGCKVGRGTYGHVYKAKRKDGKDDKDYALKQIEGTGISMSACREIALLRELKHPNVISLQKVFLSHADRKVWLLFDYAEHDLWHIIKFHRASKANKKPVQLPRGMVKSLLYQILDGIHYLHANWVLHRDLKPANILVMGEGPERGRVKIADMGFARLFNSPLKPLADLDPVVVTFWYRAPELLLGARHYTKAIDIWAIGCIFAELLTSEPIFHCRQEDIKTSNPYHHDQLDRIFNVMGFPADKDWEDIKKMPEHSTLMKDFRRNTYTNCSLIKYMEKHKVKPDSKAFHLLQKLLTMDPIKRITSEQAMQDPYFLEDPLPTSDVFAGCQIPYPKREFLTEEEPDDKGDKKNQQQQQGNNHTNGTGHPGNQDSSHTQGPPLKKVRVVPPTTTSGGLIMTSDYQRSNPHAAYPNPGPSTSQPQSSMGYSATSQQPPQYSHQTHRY
# UniProt P48643, whole entry: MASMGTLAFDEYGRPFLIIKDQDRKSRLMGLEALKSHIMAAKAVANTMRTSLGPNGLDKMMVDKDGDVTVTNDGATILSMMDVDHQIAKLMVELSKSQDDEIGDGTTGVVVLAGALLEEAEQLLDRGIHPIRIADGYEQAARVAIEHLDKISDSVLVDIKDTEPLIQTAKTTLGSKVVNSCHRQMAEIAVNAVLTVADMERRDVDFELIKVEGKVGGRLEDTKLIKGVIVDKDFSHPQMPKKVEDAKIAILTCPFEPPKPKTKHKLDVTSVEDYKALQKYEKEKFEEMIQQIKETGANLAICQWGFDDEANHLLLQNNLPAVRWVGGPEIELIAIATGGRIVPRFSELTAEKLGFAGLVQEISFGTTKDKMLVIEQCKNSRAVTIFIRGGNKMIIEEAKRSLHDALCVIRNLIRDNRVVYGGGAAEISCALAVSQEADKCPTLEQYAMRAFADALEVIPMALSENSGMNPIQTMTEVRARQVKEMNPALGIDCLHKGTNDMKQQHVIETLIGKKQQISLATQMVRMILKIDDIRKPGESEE
# UniProt P51797: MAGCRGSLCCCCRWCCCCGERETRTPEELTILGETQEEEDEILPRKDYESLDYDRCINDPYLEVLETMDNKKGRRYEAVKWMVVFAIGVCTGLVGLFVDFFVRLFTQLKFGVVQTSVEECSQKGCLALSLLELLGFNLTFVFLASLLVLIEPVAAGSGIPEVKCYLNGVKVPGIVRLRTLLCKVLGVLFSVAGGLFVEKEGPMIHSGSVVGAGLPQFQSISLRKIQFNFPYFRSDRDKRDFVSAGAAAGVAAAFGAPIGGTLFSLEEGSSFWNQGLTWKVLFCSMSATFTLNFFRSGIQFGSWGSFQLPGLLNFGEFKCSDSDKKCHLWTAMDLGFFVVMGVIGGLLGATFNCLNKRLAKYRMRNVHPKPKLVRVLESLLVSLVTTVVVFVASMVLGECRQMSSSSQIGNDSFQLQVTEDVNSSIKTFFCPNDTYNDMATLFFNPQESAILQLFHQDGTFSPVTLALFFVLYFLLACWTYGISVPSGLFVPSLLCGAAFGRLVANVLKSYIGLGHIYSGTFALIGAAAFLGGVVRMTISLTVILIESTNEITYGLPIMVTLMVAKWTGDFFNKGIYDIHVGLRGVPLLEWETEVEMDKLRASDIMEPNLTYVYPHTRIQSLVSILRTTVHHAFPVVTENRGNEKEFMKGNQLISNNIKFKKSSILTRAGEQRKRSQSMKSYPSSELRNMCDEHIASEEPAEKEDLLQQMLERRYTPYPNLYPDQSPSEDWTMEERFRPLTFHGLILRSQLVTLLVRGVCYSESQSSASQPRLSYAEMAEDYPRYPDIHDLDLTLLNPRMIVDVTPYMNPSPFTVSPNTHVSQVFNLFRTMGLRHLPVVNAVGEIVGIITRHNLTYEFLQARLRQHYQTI
# ± gives the standard deviation of the averaged measurements. The entries are a selection whose mix differs from that of the whole data set.
# Compound: Nc1ncnc2c1ncn2[C@@H]1O[C@H](COP(=O)(O)OP(=O)(O)NP(=O)(O)O)[C@@H](O)[C@H]1O [adenylyl imidodiphosphate]
# Test: NP40-soluble protein abundance relative to vehicle (solubility fold change) (ratio); higher = more soluble protein in presence of AMP-PNP
# Method in brief: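 Eight concentrations, 0.1 to 10 mM, were tested on Jurkat crude lysate for 10 min at room temperature and then 3 min at 37 °C, in three independent experiments. The lysate was solubilised with 0.8% NP40 and benzonase, ultracentrifuged, and the supernatant TMT-labelled for LC-MS/MS. Each value is the fold change against the detergent-processed vehicle in its own replicate, from vsn-normalised intensities.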
target,measurement,setting,value
UniProt P53621 and related entries,NP40-soluble protein abundance,concentration: 1mM,0.9618 ± 0.0042
same,NP40-soluble protein abundance,concentration: 2mM,0.882 ± 0.097
same,NP40-soluble protein abundance,concentration: 4mM,0.93 ± 0.036
same,NP40-soluble protein abundance,concentration: 6mM,0.9305 ± 0.0074
same,NP40-soluble protein abundance,concentration: 8mM,0.965 ± 0.045
same,NP40-soluble protein abundance,concentration: 10mM,0.918 ± 0.045
UniProt P51149,NP40-soluble protein abundance,concentration: 1mM,0.941 ± 0.045
same,NP40-soluble protein abundance,concentration: 2mM,0.8959 ± 0.0061
same,NP40-soluble protein abundance,concentration: 4mM,0.922 ± 0.047
same,NP40-soluble protein abundance,concentration: 6mM,0.995 ± 0.07
same,NP40-soluble protein abundance,concentration: 8mM,0.997 ± 0.051
same,NP40-soluble protein abundance,concentration: 10mM,0.981 ± 0.047
MNX1 (UniProt P50219),NP40-soluble protein abundance,concentration: 1mM,0.988 ± 0.02
same,NP40-soluble protein abundance,concentration: 2mM,1.01 ± 0.03
same,NP40-soluble protein abundance,concentration: 4mM,1.02 ± 0.023
same,NP40-soluble protein abundance,concentration: 6mM,0.994 ± 0.014
same,NP40-soluble protein abundance,concentration: 8mM,0.9972 ± 0.0056
same,NP40-soluble protein abundance,concentration: 10mM,1.015 ± 0.0047
CTSC (UniProt P53634),NP40-soluble protein abundance,concentration: 1mM,0.997 ± 0.019
same,NP40-soluble protein abundance,concentration: 2mM,1.09 ± 0.11
same,NP40-soluble protein abundance,concentration: 4mM,1.03 ± 0.034
same,NP40-soluble protein abundance,concentration: 6mM,1.04 ± 0.051
same,NP40-soluble protein abundance,concentration: 8mM,1.06 ± 0.067
same,NP40-soluble protein abundance,concentration: 10mM,1.06 ± 0.047
CRIP1 (UniProt P50238),NP40-soluble protein abundance,concentration: 1mM,1.01 ± 0.041
same,NP40-soluble protein abundance,concentration: 2mM,1.1 ± 0.033
same,NP40-soluble protein abundance,concentration: 4mM,0.963 ± 0.059
same,NP40-soluble protein abundance,concentration: 6mM,0.955 ± 0.027
same,NP40-soluble protein abundance,concentration: 8mM,0.962 ± 0.045
same,NP40-soluble protein abundance,concentration: 10mM,0.951 ± 0.063
UniProt P53609 and related entries,NP40-soluble protein abundance,concentration: 1mM,1.04 ± 0.02
same,NP40-soluble protein abundance,concentration: 2mM,0.993 ± 0.029
same,NP40-soluble protein abundance,concentration: 4mM,1.023 ± 0.0089
same,NP40-soluble protein abundance,concentration: 6mM,1.01 ± 0.061
same,NP40-soluble protein abundance,concentration: 8mM,1.05 ± 0.015
same,NP40-soluble protein abundance,concentration: 10mM,1.02 ± 0.025
UniProt P47813,NP40-soluble protein abundance,concentration: 1mM,1.02 ± 0.043
same,NP40-soluble protein abundance,concentration: 2mM,1.08 ± 0.079
same,NP40-soluble protein abundance,concentration: 4mM,1.06 ± 0.08
same,NP40-soluble protein abundance,concentration: 6mM,1.22 ± 0.081
same,NP40-soluble protein abundance,concentration: 8mM,1.29 ± 0.083
same,NP40-soluble protein abundance,concentration: 10mM,1.33 ± 0.12
UniProt P49588 and related entries,NP40-soluble protein abundance,concentration: 1mM,1.01 ± 0.013
same,NP40-soluble protein abundance,concentration: 2mM,0.976 ± 0.05
same,NP40-soluble protein abundance,concentration: 4mM,0.967 ± 0.041
same,NP40-soluble protein abundance,concentration: 6mM,0.979 ± 0.013
same,NP40-soluble protein abundance,concentration: 8mM,0.954 ± 0.03
same,NP40-soluble protein abundance,concentration: 10mM,0.952 ± 0.05
GNAQ (UniProt P50148),NP40-soluble protein abundance,concentration: 1mM,1.03 ± 0.033
same,NP40-soluble protein abundance,concentration: 2mM,0.986 ± 0.064
same,NP40-soluble protein abundance,concentration: 4mM,0.981 ± 0.019
same,NP40-soluble protein abundance,concentration: 6mM,0.97 ± 0.05
same,NP40-soluble protein abundance,concentration: 8mM,0.964 ± 0.02
same,NP40-soluble protein abundance,concentration: 10mM,0.965 ± 0.041
STAT6 (UniProt P42226),NP40-soluble protein abundance,concentration: 1mM,0.988 ± 0.019
same,NP40-soluble protein abundance,concentration: 2mM,0.992 ± 0.019
same,NP40-soluble protein abundance,concentration: 4mM,0.99 ± 0.011
same,NP40-soluble protein abundance,concentration: 6mM,0.983 ± 0.026
same,NP40-soluble protein abundance,concentration: 8mM,0.989 ± 0.025
same,NP40-soluble protein abundance,concentration: 10mM,0.998 ± 0.012
HADHA (UniProt P40939),NP40-soluble protein abundance,concentration: 1mM,0.949 ± 0.017
same,NP40-soluble protein abundance,concentration: 2mM,0.873 ± 0.069
same,NP40-soluble protein abundance,concentration: 4mM,0.913 ± 0.043
same,NP40-soluble protein abundance,concentration: 6mM,0.95 ± 0.022
same,NP40-soluble protein abundance,concentration: 8mM,0.962 ± 0.029
same,NP40-soluble protein abundance,concentration: 10mM,0.922 ± 0.056
UniProt P52758,NP40-soluble protein abundance,concentration: 1mM,0.978 ± 0.042
same,NP40-soluble protein abundance,concentration: 2mM,0.986 ± 0.043
same,NP40-soluble protein abundance,concentration: 4mM,0.978 ± 0.044
same,NP40-soluble protein abundance,concentration: 6mM,1.02 ± 0.085
same,NP40-soluble protein abundance,concentration: 8mM,1 ± 0.09
same,NP40-soluble protein abundance,concentration: 10mM,1 ± 0.067
SRP9 (UniProt P49458),NP40-soluble protein abundance,concentration: 1mM,0.948 ± 0.085
same,NP40-soluble protein abundance,concentration: 2mM,1.06 ± 0.15
same,NP40-soluble protein abundance,concentration: 4mM,1.03 ± 0.12
same,NP40-soluble protein abundance,concentration: 6mM,1.21 ± 0.21
same,NP40-soluble protein abundance,concentration: 8mM,1.17 ± 0.089
same,NP40-soluble protein abundance,concentration: 10mM,1.12 ± 0.2
PIK3CA (UniProt P42336),NP40-soluble protein abundance,concentration: 1mM,1.01 ± 0.035
same,NP40-soluble protein abundance,concentration: 2mM,0.935 ± 0.068
same,NP40-soluble protein abundance,concentration: 4mM,0.992 ± 0.011
same,NP40-soluble protein abundance,concentration: 6mM,0.951 ± 0.035
same,NP40-soluble protein abundance,concentration: 8mM,0.964 ± 0.057
same,NP40-soluble protein abundance,concentration: 10mM,0.938 ± 0.033
LMAN1 (UniProt P49257),NP40-soluble protein abundance,concentration: 1mM,0.982 ± 0.03
same,NP40-soluble protein abundance,concentration: 2mM,0.945 ± 0.052
same,NP40-soluble protein abundance,concentration: 4mM,0.94 ± 0.034
same,NP40-soluble protein abundance,concentration: 6mM,0.93 ± 0.019
same,NP40-soluble protein abundance,concentration: 8mM,0.9238 ± 0.0074
same,NP40-soluble protein abundance,concentration: 10mM,0.888 ± 0.032
UniProt P49336 and related entries,NP40-soluble protein abundance,concentration: 1mM,1.037 ± 0.0074
same,NP40-soluble protein abundance,concentration: 2mM,1.03 ± 0.02
same,NP40-soluble protein abundance,concentration: 4mM,1.03 ± 0.022
same,NP40-soluble protein abundance,concentration: 6mM,1.04 ± 0.015
same,NP40-soluble protein abundance,concentration: 8mM,1.01 ± 0.021
same,NP40-soluble protein abundance,concentration: 10mM,1.04 ± 0.029
CCT5 (UniProt P48643),NP40-soluble protein abundance,concentration: 1mM,1.01 ± 0.069
same,NP40-soluble protein abundance,concentration: 2mM,0.957 ± 0.078
same,NP40-soluble protein abundance,concentration: 4mM,0.955 ± 0.059
same,NP40-soluble protein abundance,concentration: 6mM,0.929 ± 0.12
same,NP40-soluble protein abundance,concentration: 8mM,0.935 ± 0.079
same,NP40-soluble protein abundance,concentration: 10mM,0.904 ± 0.15
SSR4 (UniProt P51571),NP40-soluble protein abundance,concentration: 1mM,0.998 ± 0.014
same,NP40-soluble protein abundance,concentration: 2mM,0.961 ± 0.064
same,NP40-soluble protein abundance,concentration: 4mM,0.988 ± 0.019
same,NP40-soluble protein abundance,concentration: 6mM,0.977 ± 0.027
same,NP40-soluble protein abundance,concentration: 8mM,0.998 ± 0.011
same,NP40-soluble protein abundance,concentration: 10mM,0.981 ± 0.037
UniProt P51797 and related entries,NP40-soluble protein abundance,concentration: 1mM,1.02 ± 0.025
same,NP40-soluble protein abundance,concentration: 2mM,1.05 ± 0.033
same,NP40-soluble protein abundance,concentration: 4mM,1.02 ± 0.016
same,NP40-soluble protein abundance,concentration: 6mM,1 ± 0.014
same,NP40-soluble protein abundance,concentration: 8mM,0.986 ± 0.031
same,NP40-soluble protein abundance,concentration: 10mM,1.02 ± 0.027

# Reformatted as tab-separated lines: entries from further up.
target	measurement	setting	value
UniProt P49588 and related entries	NP40-soluble protein abundance	concentration: 10mM	0.952 ± 0.05
GNAQ (UniProt P50148)	NP40-soluble protein abundance	concentration: 1mM	1.03 ± 0.033
same	NP40-soluble protein abundance	concentration: 2mM	0.986 ± 0.064

# Part of the list above, tab-delimited.
target	measurement	setting	value
CTSC (UniProt P53634)	NP40-soluble protein abundance	concentration: 6mM	1.04 ± 0.051
same	NP40-soluble protein abundance	concentration: 8mM	1.06 ± 0.067
same	NP40-soluble protein abundance	concentration: 10mM	1.06 ± 0.047
CRIP1 (UniProt P50238)	NP40-soluble protein abundance	concentration: 1mM	1.01 ± 0.041
same	NP40-soluble protein abundance	concentration: 2mM	1.1 ± 0.033
